# Measured values as given in patent publication US20190298661A1, “Transdermal Delivery of Phenethylamine Monoamine Releasers” (priority 2016, published 2019).
# Experiment: Skin resistance after 4 h of iontophoresis or passive control
# Set-up: species or system human
smiles,measurement,setting,value
"CC(N)Cc1cccc(F)c1 (centres unmarked) [PAL-353, 3-fluoroamphetamine]",decrease of skin resistance,after 4 h of current application (0.5 mA/cm^2),87.69±3.03%
same,decrease of skin resistance,"passive control group, no current, 4 h",18.47±6.40%
